# Results from PubChem BioAssay AID2685 (National Center for Advancing Translational Sciences (NCATS), 2010).
# The other results are listed elsewhere or left out. Shown are side measurements of this screen, not its main read-out; they come without a call. Compounds called inactive in the main read-out are mostly missing here. Words in brackets tell the shape of the fitted curve; partial curves, single points and poor fits give uncertain potencies.
# Test: qHTS Assay for Lipid Storage Modulators in Drosophila S3 Cells;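 for cell number change: cells counted by Cell Tracker Red CMTPX staining in the red channel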
# Conditions: BODIPY lipid droplet fluorescence, 18-24 h; for cell number change: measured here: cell count max response, cells fed with added oleic acid
# Outline: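 Drosophila S3 cells got compounds at several concentrations plus oleic acid (400 uM solution). Laser-scanning cytometry with 488 nm excitation read lipid droplets at 500-530 nm and cells at 575-640 nm. Percent activity was relative to 20 uM Triacsin C.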
# [1] = measured here: lipid fluorescence (Fed channel) AC50, cells fed with added oleic acid
# [2] = measured here: cell number channel AC50, cells fed with added oleic acid
SMILES,cell number change [%],AC50 [1],AC50 [2]
COc1ccc(CCNC(=O)CN(c2ccc(OC)cc2)S(C)(=O)=O)cc1,24.8,,
C/C(=C\C(=O)c1ccc(C)o1)Nc1ccc2c(c1)OCO2,1.03,"0.58 µM [rising, partial curve]",
Brc1ccc(C2Nc3cccc4cccc(c34)N2)o1,3.13,"0.092 µM [rising, full curve, poor fit]",
CC(C)(C)c1ccc(OCCn2nc(C(=O)O)c3ccccc3c2=O)cc1,-2.63,,
Cc1cc(=O)oc2cc(NC(=O)C(CCCN=C(N)N)NC(=O)OCc3ccccc3)ccc12 (stereo not given),,"0.517 µM [rising, full curve, poor fit]",
Cc1ccc(C2C(C#N)=C(N)SC(N)=C2C#N)c(C)c1,-31.3,"20.6 µM [falling, single point]","25.9 µM [falling, single point]"
Cc1oc(-c2ccccc2F)nc1CS(=O)(=O)CC(=O)NCCCc1ccccc1,64.7,"7.31 µM [rising, partial curve]","29.1 µM [rising, single point]"
CSc1ccc(CCNC(=O)Cn2ncc3c([nH]c4ccccc43)c2=O)cc1,-22.1,"11.6 µM [rising, partial curve, poor fit]",
Cc1nc(SCC(=O)Nc2cc(S(=O)(=O)N3CCOCC3)ccc2Cl)nc(C)c1C,22.6,"0.116 µM [rising, full curve, poor fit]","0.259 µM [rising, full curve, poor fit]"
CCSc1nnc(-c2ccccc2N=Cc2c(C)[nH]n(-c3ccccc3)c2=O)c(=O)[nH]1,15.8,"0.731 µM [rising, single point]",
Cc1ccc(C)c(NC(=O)c2ccc(N(C)S(C)(=O)=O)cc2)c1,,"0.146 µM [rising, full curve, poor fit]",
Cc1nc2ccccc2cc1C(=O)N/N=C/c1ccccc1[N+](=O)[O-],12.8,,"2.31 µM [rising, single point]"
Cc1cccc(NC(=O)c2onc3c2CCCC3)c1C,-19.2,"0.103 µM [rising, full curve, poor fit]","0.116 µM [rising, full curve, poor fit]"
C/C(=N\NC(=O)c1ccc(Cl)cc1)c1ccc(Br)s1,-1.63,,"0.366 µM [rising, single point]"
Oc1ccc(/C=N/Nc2ccc(C(F)(F)F)cn2)cc1O,-37.6,,"18.4 µM [falling, single point]"
COc1ccc(/C=C/C(=O)N2CCN(c3ccccn3)CC2)cc1OC,,"23.1 µM [falling, single point]",
Cc1cc(C)nc(NS(=O)(=O)c2ccc(NC(=O)C3CC3)cc2)n1,18.4,"7.94 µM [rising, partial curve, poor fit]",
Fc1ccc(Nc2ncnc3ccccc23)cc1,-0.293,,
COC(=O)c1ccccc1NC(=O)N1CCN(S(=O)(=O)c2ccc(Cl)cc2)CC1,-11.1,"1.46 µM [falling, partial curve]",
CCSCc1nnc(SCC(=O)Nc2ccc(OC)cc2)n1C,16,"32.6 µM [rising, single point]",

SMILES,cell number change [%],AC50 [1],AC50 [2]
COc1ccc(COC(=O)N/C=C/c2ccco2)cc1,24.5,"1.03 µM [falling, single point]",
CC(NC(=O)c1ccccc1)c1nc2ccccc2n1Cc1ccccc1F (stereo not given),-9.91,"23.1 µM [falling, single point]",
Cn1cc(C(=O)NCc2cccnc2)c(=O)c2cc(S(=O)(=O)N3CCCCCC3)ccc21,-11.3,"6.51 µM [rising, partial curve, poor fit]","6.51 µM [rising, partial curve, poor fit]"
CC(=O)c1ccc(NC(=S)NC(C)CCc2ccccc2)cc1 (stereo not given),-16.2,"0.731 µM [falling, full curve]",
CCc1ncc(C(O)c2cccc(OC)c2OC)n1C (stereo not given),-110,"5.8 µM [falling, partial curve]","25.9 µM [falling, partial curve]"
O=C(O)C1CCCNC1 (stereo not given),,"0.58 µM [rising, single point]","0.58 µM [rising, single point]"
COc1cc(CN2CCCCCC2)cc(OC)c1,3.67,,
COC(=O)c1[nH]c2ccc(C)cc2c1NC(=O)CN1CCCC(C)(C)C1,196,,"20.6 µM [rising, single point]"
CO/N=C/C1CCN(c2ncc(C(F)(F)F)cc2Cl)C1=O (stereo not given),-44.9,,"14.6 µM [falling, single point]"
COc1cccc(S(=O)(=O)N2CCN(c3ccccc3F)CC2)c1,-15.1,"2.31 µM [rising, full curve]",
On1c(-c2ccccc2)nc2ccccc21,7.74,"1.46 µM [falling, full curve, poor fit]",
CCOc1ccc(C(=O)NCC(=O)OCC(=O)Nc2ccccc2OC)cc1,8.91,"23.1 µM [falling, partial curve]",
COP(=O)(OC)c1nc(-c2cccc3ccccc23)oc1NCCc1ccccc1,-35.3,"0.461 µM [rising, partial curve]",
CN1CCN(c2nc3c(c(=O)n(C)c(=O)n3C)n2Cc2cccc3ccccc23)CC1,18.2,"0.58 µM [rising, single point]",
NC(=O)c1ccc(NC(=O)COC(=O)c2n[nH]c3ccccc23)cc1,7.66,"7.31 µM [falling, partial curve]",
COc1ccccc1C(=O)N1CCCC1(C#N)c1ccccc1 (stereo not given),,"0.259 µM [falling, partial curve, poor fit]",
Cc1nc2ccn(Cc3ccccc3)c(=O)c2cc1C(=O)N1CCN(c2ccccc2)CC1,29.6,"20.6 µM [rising, single point]",
COc1ccccc1OCCNC(=O)C(c1ccccc1)c1ccccc1,19.4,,
Cc1cc(Cl)ccc1OCC(=O)NCc1ccncc1,-20.3,"29.1 µM [falling, single point]",
Cc1ccc(C2OCC3(CO)COC(c4ccc(C)cc4)N23)cc1 (stereo not given),-44.2,,"32.6 µM [falling, single point]"

SMILES,cell number change [%],AC50 [1],AC50 [2]
CC1CCCC(NC(=O)CSc2ncccn2)C1C (stereo not given),3.96,"0.58 µM [falling, single point]",
C[C@@H]1NC(=O)N(c2ccc(F)cc2)C1=O,32.4,,"1.46 µM [rising, full curve]"
CCCCN(Cc1ccco1)C(=O)c1cc2c(=O)[nH]c3ccc(C)cc3c2s1,-32.5,"2.91 µM [falling, partial curve, poor fit]","2.06 µM [falling, single point]"
Cc1ccc(C)c(-n2nnnc2SCC(=O)NCC2CCCO2)c1 (stereo not given),18.7,"0.00517 µM [rising, full curve, poor fit]",
CN(C(=O)CCNC(=O)Cn1cnc2ccccc2c1=O)c1ccc(Br)cc1,9.66,"0.00517 µM [rising, full curve, poor fit]",
Cc1nc2c(C)cccc2cc1C(=O)N/N=C/c1cccnc1,15.7,"29.1 µM [rising, single point]",
CCOc1cc(/C=N/Nc2nn3cnnc3c3ccccc23)ccc1O,-17.7,"29.1 µM [falling, single point]",
CCOCCCNC(=O)C(NC(=O)CNC(=O)c1ccccc1)c1ccccc1 (stereo not given),13.8,"29.1 µM [falling, partial curve]",
COc1ccc(N(CC(=O)NCc2cccs2)S(=O)(=O)c2cccnc2)cc1,44.8,"2.91 µM [rising, full curve]","10.3 µM [rising, partial curve]"
CC(C)(C)N(Cc1ccccc1)C(=O)COc1cccnc1[N+](=O)[O-],16,"4.61 µM [rising, partial curve]",
O=C(Nc1ccccc1Cc1ccccc1)c1ccc2c(c1)SC1=NS(=O)(=O)CCN12,-31.3,"7.31 µM [falling, partial curve, poor fit]","25.9 µM [falling, single point]"
COc1ccc(-c2nnc3ccc(SCC(=O)NCc4ccco4)nn23)cc1,-10.4,"1.16 µM [rising, partial curve]",
COc1ccc(S(=O)(=O)N2CCc3ccccc32)cc1NC(C)=O,-2.94,"6.51 µM [falling, single point]",
Cc1nn(C)c(C)c1NS(=O)(=O)c1ccc(N2CCCC2=O)cc1,-35.1,"1.46 µM [falling, partial curve]","29.1 µM [falling, single point]"
CC(=O)N1N=C(c2cccs2)CC1c1ccc(C)o1 (stereo not given),-47.4,,"25.9 µM [falling, partial curve, poor fit]"
Cc1ccc(C(=O)CCC(=O)Nc2ncccc2C)cc1,48.1,"11.6 µM [rising, partial curve, poor fit]","8.2 µM [rising, partial curve, poor fit]"
Cc1ccccc1N(C(=O)c1csnn1)C(C(=O)NC1CCCC1)c1ccncc1 (stereo not given),64.1,,"29.1 µM [rising, single point]"
COc1ccc(C(=O)CSc2nnc(CNC(=O)c3ccc(OC)c(OC)c3)n2C)cc1,14.6,,"0.0058 µM [rising, full curve, poor fit]"
CC(Sc1ccc([N+](=O)[O-])cn1)C(=O)Nc1nccs1 (stereo not given),2.56,"29.1 µM [falling, single point]",

# Reformatted with bars between the fields: part of the list above.
SMILES | cell number change [%] | AC50 [1] | AC50 [2]
CCCCN(Cc1ccco1)C(=O)c1cc2c(=O)[nH]c3ccc(C)cc3c2s1 | -32.5 | 2.91 µM [falling, partial curve, poor fit] | 2.06 µM [falling, single point]
COc1ccc(C(=O)CSc2nnc(CNC(=O)c3ccc(OC)c(OC)c3)n2C)cc1 | 14.6 |  | 0.0058 µM [rising, full curve, poor fit]
